This is an account of results in article PMC3441716.

Assay [1] addresses T1, His-tagged Cnu (OriC-binding nucleoid protein), wild type (E. coli) (UniProt P64467).
T1 sequence: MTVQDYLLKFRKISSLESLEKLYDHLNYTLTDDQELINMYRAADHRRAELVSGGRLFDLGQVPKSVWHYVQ
Description: pull-down; H-NS co-eluting with His-tagged Cnu or CnuK9E from a nickel-affinity column during His-tag based purification (Fig. S1).

The target of assay [2] is T2, His-tagged CnuK9E (Cnu with a lysine to glutamic acid substitution at residue 9) (E. coli) (UniProt P64467).
T2 sequence: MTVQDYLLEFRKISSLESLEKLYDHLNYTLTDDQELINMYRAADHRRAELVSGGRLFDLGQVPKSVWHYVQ
The assay is described as above.

No constants are given. Whether binding was seen depends on the method and setting. In cells and extracts the contact can be indirect. Some binding calls cover weakened binding; strength is not graded here. Sequences can lack the tags named with a protein.

B1: H-NS (histone-like nucleoid structuring protein) (protein, UniProt P0ACF8 1-137)
chain: MSEALKILNNIRTLRAQARECTLETLEEMLEKLEVVVNERREEESAAAAEVEERTRKLQQYREMLIADGIDPNELLNSLAAVKSGTKAKRAQRPAKYSYVDENGETKTWTGQGRTPAVIKKAMDEQGKSLDDFLIKQ
Consider B1, for which the binding entry in assay [1] and in assay [2] was “binds” in each case.
